Experiment: soluble on expression in E. coli; label from the status in PepcDB or PDB records

| Sequence | soluble on expression in E. coli |
| --- | --- |
| ARGPAPRLLRPRLSSRASSARRRRARLPGGCGAPGSAARGPRGAGRRRRGARGSGRGACTMNYQQQLANSAAIRAEIQRFESVHPNIYSIYELLERVEEPVLQNQIREHVIAIEDAFVNSQEWTLSRSVPELKVGIVGNLASGKSALVHRYLTGTYVQEESPEGGRFKKEIVVDGQSYLLLIRDEGGPPEAQFAMWVDAVIFVFSLEDEISFQTVYHYYSRMANYRNTSEIPLVLVGTQDAISSANPRVIDDARARKLSNDLKRCTYYETCATYGLNVERVFQDVAQKIVATRKKQQLSIGPCKSLPNSPSHSSVCSAQVSAVHISQTSNGGGSLSDYSSSVPSTPSISQKELRIDVPPTANTPTPVRKQSKRRSNLFTSRKGSDPDKEKKGLESRADSIGSGRAIPIKQGMLLKRSGKSLNKEWKKKYVTLCDNGVLTYHPSLHDYMQNVHGKEIDLLRTTVKVPGKRPPRATSACAPISSPKTNGLSKDMSSLHISPNSDTGLGDSVCSSPSISSTTSPKLDPPPSPHANRKKHRRKKSTSNFKADGLSGTAEEQEENFEFIIVSLTGQTWHFEATTYEERDAWVQAIESQILASLQSCESSKNKSRLTSQSEAMALQSIRNMRGNSHCVDCETQNPNWASLNLGALMCIECSGIHRNLGTHLSRVRSLDLDDWPIELIKVMSSIGNELANSVWEESSQGRTKPSVDSTREEKERWIRAKYEQKLFLAPLPCTELSLGQHLLRATADEDLRTAILLLAHGSRDEVNETCGEGDGRTALHLACRKGNVVLAQLLIWYGVDVTARDAHGNTALAYARQASSQECIDVLLQYGCPDERFVLMATPNLSRRNNNRNNSSGRVPTII | soluble |
| FVNIGERCNVAGSRKFLRLVNEKKYDEALSIARQQVEDGALVIDVNMDDGLLDARTEMTTFLNLIMSEPEIARVPVMIDSSKWEVIEAGLKCLQGKSIVNSISLKEGEEVFLEHARIIKQYGAATVVMAFDEKGQADTAARKIEVCERAYRLLVDKVGFNPHDIIFDPNVLAVATGIEEHNNYAVDFIEATGWIRKNLPGAHVSGGVSNLSFSFRGNNYIREAMHAVFLYHAIQQGMDMGIVNPGTSVLYSDIPADTLEKIEDVVLNRRPDAAERLIELAEA | not soluble |
| MADKPARSKQIETEMTLEQVKEQLTELGKKRGVLTYEEIAERMNGFEIESDQMDEYYEYLGEQGIDLVGDNDEGPNNHQITKTEEEFDLNDLSVPPGVKINDPVRMYLKEIGRVDLLSAEEEIRLATRIEEGDEEAKRRLAEANLRLVVSIAKRYVGRGMLFLDLIQEGNMGLIKAVEKFDYRKGFKFSTYATWWIRQAITRAIADQARTIRIPVHMVETINKLIRVQRQLLQDLGREPSPEEIGEEMDLAPEKVREILKIAQEPVSLETPIGEEDDSHLGDFIEDQEATSPADHAAYELLKEQLEDVLDTLTDREENVLRLRFGLDDGRTRTLEEVGKVFGVTRERIRQIEAKALRKLRHPSRSKRLKDFLE | not soluble |
| MAHHHHHHMQEIAAAEPPFACTPALVLIISEPKHAQTLLRAANLHLPLDQTEGGHLKRLRPRRCVTRVPLTEPQSLPPATPPSSLELLLALQPLERCGAAHTASVFTSAASSSCDAIGGTGANSGAAGSGHAALEHRLLWPLTRAEASLCAEQVLTLLSSDLASASRVVPFRAFVEAASAVTAENSAACGTRQQAIGICVRNDDTEGYTSTSSSPRVGDDTAAASDAAAAPCGSLAFQIMSVPATAPRSDPAEWASANRVWPLAVPRPHAPTLPSAAWTAEVCGNMVKHVFPLCRGLHRVCKARDQHVRASRLSLERGVEEFSKAASSPQISGAEEEAVVGAKEPSGLLDIVAVVIDPSTGRVVATSSGCTSMRVDNPVATAPYCGIVAETPCSERTVSWKRQRAVAPQQPRLILEHPVMYALKQLAAVQQQQEHHRQTMQPSPGTAGAFTAPGSLEPGPSSAVTAEDARHANSTRPYLANGLDLYVTHEPCVMCAMALVHSRIQRVFFLFRNAVHGGLGGRYHLHSMASLNHHFSAYECTEAAELYTTL | not soluble |
| MAMTGSTPCSSMSNHTKERVTMTKVTLENFYSNLIAQHEEREMRQKKLEKVMEEEGLKDEEKRLRRSAHARKETEFLRLKRTRLGLEDFESLKVIGRGAFGEVRLVQKKDTGHVYAMKILRKADMLEKEQVGHIRAERDILVEADSLWVVKMFYSFQDKLNLYLIMEFLPGGDMMTLLMKKDTLTEEETQFYIAETVLAIDSIHQLGFIHRDIKPDNLLLDSKGHVKLSDFGLCTGLKKAHRTEFYRNLNHSLPSDFTFQNMNSKRKAETWKRNRRQLAFSTVGTPDYIAPEVFMQTGYNKLCDWWSLGVIMYEMLIGYPPFCSETPQETYKKVMNWKETLTFPPEVPISEKAKDLILRFCCEWEHRIGAPGVEEIKSNSFFEGVDWEHIRERPAAISIEIKSIDDTSNFDEFPESDILKPTVATSNHPETDYKNKDWVFINYTYKRFEGLTARGAIPSYMKAAK | not soluble |
| MGLLTKVATSRQFSTTRCVAKKLNKYSYIITEPKGQGASQAMLYATGFKKEDFKKPQVGVGSCWWSGNPCNMHLLDLNNRCSQSIEKAGLKAMQFNTIGVSDGISMGTKGMRYSLQSREIIADSFETIMMAQHYDANIAIPSCDKNMPGVMMAMGRHNRPSIMVYGGTILPGHPTCGSSKISKNIDIVSAFQSYGEYISKQFTEEEREDVVEHACPGPGSCGGMYTANTMASAAEVLGLTIPNSSSFPAVSKEKLAECDNIGEYIKKTMELGILPRDILTKEAFENAITYVVATGGSTNAVLHLVAVAHSAGVKLSPDDFQRISDTTPLIGDFKPSGKYVMADLINVGGTQSVIKYLYENNMLHGNTMTVTGDTLAERAKKAPSLPEGQEIIKPLSHPIKANGHLQILYGSLAPGGAVGKITGKEGTYFKGRARVFEEEGAFIEALERGEIKKGEKTVVVIRYEGPRGAPGMPEMLKPSSALMGYGLGKDVALLTDGRFSGGSHGFLIGHIVPEAAEGGPIGLVRDGDEIIIDADNNKIDLLVSDKEMAQRKQSWVAPPPRYTRGTLSKYAKLVSNASNGCVLDA | not soluble |
| MGSDKIHHHHHHMRSDEVKKGIDRVAHRALLKALGVTDDEMDKPFIGVANAYNTIVPGHMTLDKLTQAVKEGVYAAGGVPFEFGIIGICDGIAMGHEGMCFSLPSRELVADTIEAMVEAHRFDGLVVVASCDKIIPGMLMAMLRLNIPAIAVTGGPMPYERVGGEKVSIKDAFEAAGMYKAGKLDDAGLKLYEDYCAPYCGSCQGLYTANSMQILTETLGLSLPYCSTSPCPSSRKLRIAKQSGKRVVELVMQNIKPLDFVNERSFENAITMDMLVGGSTNTVLHLPAIAKEAGIRLSLDLFDEISRRTPHIVSIDPASKEMVVDLDESGGVPMLIKKARKYFHDEMTVSGKTLYEIAEMAVLRGRDIIASPDNPLHKEGGIAILKGNLAENGAVIKAAAVSEDMMRFEGTAKVYDSEKEALNAILDGKVEEGDVVVIRYMGPKGAPGMPEMLLPTAAISGLGLQKVALITDGRFSGATRGPCIGHVSPEAAVGGNIALVEDGDKISIDIPARKLEVKLSDEELAERRAKWKPKEKELKGYLAKYAKLVRGAEEGAALL | not soluble |
| MLPWQRQVPTSIFPQSNEQVFRMMLAQQHLQLQNFLQQRKMALLAMNPEIPMITDLKKAKFDFTHMADSIESEQKIKEESVSPKMSPTLTTAAVRPFVPYDQPWFMIPGRGRTTGRAARPKKEFICKYCDRHFTKSYNLLIHERTHTDERPYSCDVCGKAFRRQDHLRDHKYIHQKDRPFKCEICGKGFCQSRTLLVHRATHDPNRHSIGAPVVPIKSETPLPELDPRVTLILQNLTDSFNSTSMTSPQISPDR | not soluble |
| MNNKSQGTVKFFNEQKGFGFITPENGGKDVFVHISKLNGETLAEGQQVTFETQEGRKGPEAINIEVL | not soluble |
| MNNRLEECGMLPAYIKIHDAIKKDIDLGIWPIGSRLPSERHLAEHFTVSRMTLRQAITLLVEEGILERRIGSGTYVASHRVQEKMRGTTSFTEIIRSQGRQPSSKLLSYQKQLASDTEVKELNLDKTDLVIRMERIRYADSVPLVYEIASIPEKFIKTVKRADITEHFFHSLIANGYEIGKSKQTIYAKLASERVASYLEVAKGHAILALTQVSYFTDGKPFEYVRSQYIGDRFEFYLENN | not soluble |
| MNRRIQLVEEELDRAQERLATALQKLEEAEKAADESERGMKVIESRAQKDEEKMEIQEIQLKEAKHIAEDADRKYEEVARKLVIIESDLERAEERAELSEGKCAELEEELKTVTNNLKSLEDKVEELLSKNYHLENEVARLKKLVGE | soluble |
| MPEYRSKTSTHGRNMAGARALWRATGVMETDFGKPIIAVANSFTQFVPGHVHLHNMGQLVAREIEKAGAIAKEFNTIAIDDGIAMGHSGMLYSLPSRDLIADSIEYMVNAHCADALVCISNCDKITPGMLIAAMRLNIPTIFVSGGPMEAGKVIGVANIQPERRLDLIDAMIESADDNVSNRQVEEVEQNACPTCGSCSGMFTANSMNCLTEALGLSLPGNGSYLATHAGRKELFLEAGRMIVEITKRYYEQNDETVLPRSIATKKAFENAMTMDIAMGGSTNTILHLLAVANEAGVDFKMADIDRLSRVVPCICKTAPNNHDYYMEDVHRAGGIFAILKELDKAGKLHTDVHTIHAPTLKDAIEQWDVTNPENTRAIERFKAAPGGVRTTQAFSQNRMWKTLDLDREKGCIRDVAHAYSQDGGLAVLFGNIAERGCVVKTAGVDESILKFTGRARVFESQEDAVEGILGNQIVAGDIVIIRYEGPKGGPGMQEMLYPTSYLKSKGLGKACALLTDGRFSGGTSGLSIGHASPEAAEGGAIGLVHEGDTVEIDIPNRSIHLAISDEELAARRAEMEARGSKAWKPKNRDRYVSAALRAYGAMATSADKGAVRDVAQIER | not soluble |
| MPLLLCPNCQVGMREVERRGVLIDVCPQCGGVWLDKGELEKLLAEAEEVERRYEEELEGFYRKEGKPYKRKKGFMKLFDLFD | soluble |
| MRILSLRFENINSLKGSWKIDFSEAPFDNNGLFAITGPTGAGKTTILDAICLALYHQTPRLTVSKKQNQLMTRHTSHCMAEVEFEVRGQGYRAFWSQKRARNKLDGNLLEPVAELAKLDGTIVSDKLKMVRSDISELTGLNFSRFTKSMMLSQGEFAAFLTSQPNDRAQLLEQLTGTEIYGDISKQVFDNHRSASEALKLLQAQSQGVSLLDDEQVKALEQQLTEITEQEKTV | not soluble |
| MSKRDYYEVLGVERGATEADLKKAYRRLAMKYHPDRNPGDKESEDKFKEANEAYEVLSDASKRAAFDQYGHAGVDPSMGGGGAGFGGANFSDIFGDVFSDFFGGGGRGGGRGGAQRGSDLRYTLELNLEEAVRGTTVSIRVPTLVNCQPCDGSGAKKGSTPSTCPTCGGIGQVRMQQGFFSVQQTCPRCHGQGKIITDPCTSCHGEGRVEEYKTLSVKVPAGVDTGDRIRLSGEGEAGTHGGPTGDLYVVISVREHEIFQRDGKHLYCEVPISYTDAALGGELEVPTLDGRVKLKIPEGTQTGKQFRLRGKGVAPVRGGGAGDLLCRVAVETPVNLSRRQRELLEELRDSLEGDSSHSPKASGWFDGVKRFFGDLLEHHHHHH | soluble |
| MSLAQTPMPQFVSKDGKHALMVDGAPFLILGAQVNNSSNYPGIMDKVWPAMQVLGPNTVQVPIAWEQVEPEEGRFDFSFVDTLLNQAREHKVRLVLLWFATWKNNGPQYAPHWVKTDNQRFPRVVTREGKSIGSLSPHAQATLDADRKAFVAFMQHLKKVDPQHTVIMIQPENEAGTYGSVRDFSPMAQKLFDGQVPDELIKRMNKQPGTWAQVFGADADEIFHAWSIGRYIDQIAQAGKAEYPLPMYVNAALRGPFNPGQPGQYASGGPTDNVLDVWKAAGPHIDLLAPDIYMPEYRMYTTVLERYARPDNALFVAETGNRPEYARYLYPTLGHNGIGWSAFGIDYTRYSNYPLGAKHVNEETLAPFALGFQAVSMGMRPFAKAASEGKLHGTAEEPGQAVQELKLNDRWSATITYGVPQFWFKGEPPGNPEPIGAALIAELSPDEFLVTGYHARVTLHPASDATANMIYDRVEEGVYEGNDWKFQRNWNGDQTDYGVNFSSVPQLLKIKLATYKEGHHHHHH | soluble |

Source: the DeepSol protein solubility set
